The list shows a part of the results.
Compound: CC1Cc2ccccc2N1C(=O)C1CCCN(C1)C(=O)CCl (mixture of isomers) [TRIM25 ligand 11 (diastereomer mixture)]
Experiment: probe-labelled cysteine peptide fold change vs DMSO (competition) (log2 fold change); higher = less target engagement (more negative = stronger competition)
Details: THP-1, incubation time: 4 h
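Further: competitive chemoproteomic profiling in live THP-1 cells with an iodoacetamide desthiobiotin (IA-DTB) probe, comparing probe-labelled peptide intensities in compound-treated cells against DMSO-treated controls.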

The chains behind the UniProt entries cited, without tags or fusion partners. Where a name states a change or a piece, a line headed by the entry shows the natural chain unless it says otherwise.
UniProt Q7Z6M3: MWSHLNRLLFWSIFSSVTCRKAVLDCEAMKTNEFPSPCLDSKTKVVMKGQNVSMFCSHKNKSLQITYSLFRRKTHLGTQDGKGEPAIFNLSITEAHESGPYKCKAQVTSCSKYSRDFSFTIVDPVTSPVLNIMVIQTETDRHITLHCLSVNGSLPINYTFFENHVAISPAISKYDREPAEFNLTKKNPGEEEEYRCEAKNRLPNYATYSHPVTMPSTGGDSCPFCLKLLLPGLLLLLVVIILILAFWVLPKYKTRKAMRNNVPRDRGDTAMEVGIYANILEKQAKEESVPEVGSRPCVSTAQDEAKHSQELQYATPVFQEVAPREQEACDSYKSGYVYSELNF
UniProt P46013: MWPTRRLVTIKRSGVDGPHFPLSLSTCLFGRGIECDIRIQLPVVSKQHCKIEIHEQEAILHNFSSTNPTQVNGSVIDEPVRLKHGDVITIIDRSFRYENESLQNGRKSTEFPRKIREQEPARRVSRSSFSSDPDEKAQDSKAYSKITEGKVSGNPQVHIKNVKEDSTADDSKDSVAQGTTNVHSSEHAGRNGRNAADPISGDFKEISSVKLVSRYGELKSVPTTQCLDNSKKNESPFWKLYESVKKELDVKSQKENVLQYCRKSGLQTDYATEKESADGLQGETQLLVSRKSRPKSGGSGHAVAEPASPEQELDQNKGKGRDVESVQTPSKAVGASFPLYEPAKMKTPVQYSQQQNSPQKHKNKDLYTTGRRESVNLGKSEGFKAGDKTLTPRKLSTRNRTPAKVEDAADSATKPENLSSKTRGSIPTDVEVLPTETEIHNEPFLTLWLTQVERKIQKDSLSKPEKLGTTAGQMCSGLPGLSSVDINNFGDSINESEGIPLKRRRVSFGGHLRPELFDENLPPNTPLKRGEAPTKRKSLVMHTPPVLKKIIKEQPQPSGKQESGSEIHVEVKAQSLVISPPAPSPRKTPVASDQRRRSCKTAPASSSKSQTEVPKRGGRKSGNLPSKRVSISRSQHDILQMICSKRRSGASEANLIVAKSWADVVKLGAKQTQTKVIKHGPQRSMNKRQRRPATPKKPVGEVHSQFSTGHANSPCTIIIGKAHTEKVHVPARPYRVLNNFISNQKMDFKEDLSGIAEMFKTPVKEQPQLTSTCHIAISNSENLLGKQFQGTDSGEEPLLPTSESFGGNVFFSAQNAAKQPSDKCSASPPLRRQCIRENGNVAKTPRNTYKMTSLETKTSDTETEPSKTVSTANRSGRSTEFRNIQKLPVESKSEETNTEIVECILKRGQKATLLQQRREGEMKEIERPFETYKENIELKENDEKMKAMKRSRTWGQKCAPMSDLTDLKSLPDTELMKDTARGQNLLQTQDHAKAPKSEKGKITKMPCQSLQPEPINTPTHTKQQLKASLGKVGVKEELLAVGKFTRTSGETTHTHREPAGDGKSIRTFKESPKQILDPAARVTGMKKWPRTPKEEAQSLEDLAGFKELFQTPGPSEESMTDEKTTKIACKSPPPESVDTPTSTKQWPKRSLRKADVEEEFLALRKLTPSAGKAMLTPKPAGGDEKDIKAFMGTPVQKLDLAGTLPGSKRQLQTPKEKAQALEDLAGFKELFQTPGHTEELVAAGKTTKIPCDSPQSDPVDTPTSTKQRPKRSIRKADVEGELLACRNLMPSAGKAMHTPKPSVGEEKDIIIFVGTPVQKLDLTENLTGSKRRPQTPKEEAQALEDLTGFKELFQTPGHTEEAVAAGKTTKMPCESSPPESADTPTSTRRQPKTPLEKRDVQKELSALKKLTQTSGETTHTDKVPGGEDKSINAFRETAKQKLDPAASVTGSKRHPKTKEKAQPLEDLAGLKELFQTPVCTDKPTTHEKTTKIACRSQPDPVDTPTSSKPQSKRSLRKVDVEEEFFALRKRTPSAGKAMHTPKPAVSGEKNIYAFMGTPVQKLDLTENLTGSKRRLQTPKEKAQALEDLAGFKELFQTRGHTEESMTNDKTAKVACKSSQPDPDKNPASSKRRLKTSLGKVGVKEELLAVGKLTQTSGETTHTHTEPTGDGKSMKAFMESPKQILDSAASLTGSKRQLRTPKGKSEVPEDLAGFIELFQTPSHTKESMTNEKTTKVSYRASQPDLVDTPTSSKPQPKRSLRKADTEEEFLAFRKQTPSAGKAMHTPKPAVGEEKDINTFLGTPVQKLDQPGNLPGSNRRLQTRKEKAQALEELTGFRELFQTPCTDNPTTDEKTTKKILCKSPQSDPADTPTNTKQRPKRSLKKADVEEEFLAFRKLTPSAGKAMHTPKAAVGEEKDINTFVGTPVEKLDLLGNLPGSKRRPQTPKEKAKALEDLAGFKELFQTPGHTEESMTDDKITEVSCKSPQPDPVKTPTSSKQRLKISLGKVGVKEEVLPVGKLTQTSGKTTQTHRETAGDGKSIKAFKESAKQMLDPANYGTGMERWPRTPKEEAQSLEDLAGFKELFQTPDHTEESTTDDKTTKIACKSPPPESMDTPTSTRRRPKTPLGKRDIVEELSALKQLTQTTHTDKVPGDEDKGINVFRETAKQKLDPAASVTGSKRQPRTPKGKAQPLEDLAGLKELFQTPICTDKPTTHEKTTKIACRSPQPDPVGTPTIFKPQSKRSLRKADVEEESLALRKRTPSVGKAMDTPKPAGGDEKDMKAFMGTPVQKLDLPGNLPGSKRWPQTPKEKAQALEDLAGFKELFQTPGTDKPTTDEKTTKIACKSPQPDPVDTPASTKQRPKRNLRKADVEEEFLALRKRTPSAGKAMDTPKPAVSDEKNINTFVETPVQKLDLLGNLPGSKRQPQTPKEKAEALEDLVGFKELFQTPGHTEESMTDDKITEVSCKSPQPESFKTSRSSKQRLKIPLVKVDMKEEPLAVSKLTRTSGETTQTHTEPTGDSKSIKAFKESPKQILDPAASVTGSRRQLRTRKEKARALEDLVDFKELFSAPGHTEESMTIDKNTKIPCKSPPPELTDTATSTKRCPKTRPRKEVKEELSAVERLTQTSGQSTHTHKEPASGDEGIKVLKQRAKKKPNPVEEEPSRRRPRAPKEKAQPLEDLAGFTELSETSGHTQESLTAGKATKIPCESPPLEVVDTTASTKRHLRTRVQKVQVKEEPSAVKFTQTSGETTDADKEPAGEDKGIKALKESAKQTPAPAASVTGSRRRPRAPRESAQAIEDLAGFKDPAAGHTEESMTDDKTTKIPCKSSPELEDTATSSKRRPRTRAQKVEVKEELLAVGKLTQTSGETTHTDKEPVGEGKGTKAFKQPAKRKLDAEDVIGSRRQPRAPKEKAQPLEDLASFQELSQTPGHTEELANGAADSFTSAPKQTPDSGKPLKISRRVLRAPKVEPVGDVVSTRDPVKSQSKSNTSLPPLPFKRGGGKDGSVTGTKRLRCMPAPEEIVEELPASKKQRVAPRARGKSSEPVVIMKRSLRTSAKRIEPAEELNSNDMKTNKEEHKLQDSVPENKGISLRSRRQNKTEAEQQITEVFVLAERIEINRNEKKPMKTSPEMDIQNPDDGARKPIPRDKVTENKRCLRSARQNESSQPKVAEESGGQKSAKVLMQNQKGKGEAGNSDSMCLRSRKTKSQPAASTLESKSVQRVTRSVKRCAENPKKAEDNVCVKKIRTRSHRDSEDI
UniProt Q5JRA6: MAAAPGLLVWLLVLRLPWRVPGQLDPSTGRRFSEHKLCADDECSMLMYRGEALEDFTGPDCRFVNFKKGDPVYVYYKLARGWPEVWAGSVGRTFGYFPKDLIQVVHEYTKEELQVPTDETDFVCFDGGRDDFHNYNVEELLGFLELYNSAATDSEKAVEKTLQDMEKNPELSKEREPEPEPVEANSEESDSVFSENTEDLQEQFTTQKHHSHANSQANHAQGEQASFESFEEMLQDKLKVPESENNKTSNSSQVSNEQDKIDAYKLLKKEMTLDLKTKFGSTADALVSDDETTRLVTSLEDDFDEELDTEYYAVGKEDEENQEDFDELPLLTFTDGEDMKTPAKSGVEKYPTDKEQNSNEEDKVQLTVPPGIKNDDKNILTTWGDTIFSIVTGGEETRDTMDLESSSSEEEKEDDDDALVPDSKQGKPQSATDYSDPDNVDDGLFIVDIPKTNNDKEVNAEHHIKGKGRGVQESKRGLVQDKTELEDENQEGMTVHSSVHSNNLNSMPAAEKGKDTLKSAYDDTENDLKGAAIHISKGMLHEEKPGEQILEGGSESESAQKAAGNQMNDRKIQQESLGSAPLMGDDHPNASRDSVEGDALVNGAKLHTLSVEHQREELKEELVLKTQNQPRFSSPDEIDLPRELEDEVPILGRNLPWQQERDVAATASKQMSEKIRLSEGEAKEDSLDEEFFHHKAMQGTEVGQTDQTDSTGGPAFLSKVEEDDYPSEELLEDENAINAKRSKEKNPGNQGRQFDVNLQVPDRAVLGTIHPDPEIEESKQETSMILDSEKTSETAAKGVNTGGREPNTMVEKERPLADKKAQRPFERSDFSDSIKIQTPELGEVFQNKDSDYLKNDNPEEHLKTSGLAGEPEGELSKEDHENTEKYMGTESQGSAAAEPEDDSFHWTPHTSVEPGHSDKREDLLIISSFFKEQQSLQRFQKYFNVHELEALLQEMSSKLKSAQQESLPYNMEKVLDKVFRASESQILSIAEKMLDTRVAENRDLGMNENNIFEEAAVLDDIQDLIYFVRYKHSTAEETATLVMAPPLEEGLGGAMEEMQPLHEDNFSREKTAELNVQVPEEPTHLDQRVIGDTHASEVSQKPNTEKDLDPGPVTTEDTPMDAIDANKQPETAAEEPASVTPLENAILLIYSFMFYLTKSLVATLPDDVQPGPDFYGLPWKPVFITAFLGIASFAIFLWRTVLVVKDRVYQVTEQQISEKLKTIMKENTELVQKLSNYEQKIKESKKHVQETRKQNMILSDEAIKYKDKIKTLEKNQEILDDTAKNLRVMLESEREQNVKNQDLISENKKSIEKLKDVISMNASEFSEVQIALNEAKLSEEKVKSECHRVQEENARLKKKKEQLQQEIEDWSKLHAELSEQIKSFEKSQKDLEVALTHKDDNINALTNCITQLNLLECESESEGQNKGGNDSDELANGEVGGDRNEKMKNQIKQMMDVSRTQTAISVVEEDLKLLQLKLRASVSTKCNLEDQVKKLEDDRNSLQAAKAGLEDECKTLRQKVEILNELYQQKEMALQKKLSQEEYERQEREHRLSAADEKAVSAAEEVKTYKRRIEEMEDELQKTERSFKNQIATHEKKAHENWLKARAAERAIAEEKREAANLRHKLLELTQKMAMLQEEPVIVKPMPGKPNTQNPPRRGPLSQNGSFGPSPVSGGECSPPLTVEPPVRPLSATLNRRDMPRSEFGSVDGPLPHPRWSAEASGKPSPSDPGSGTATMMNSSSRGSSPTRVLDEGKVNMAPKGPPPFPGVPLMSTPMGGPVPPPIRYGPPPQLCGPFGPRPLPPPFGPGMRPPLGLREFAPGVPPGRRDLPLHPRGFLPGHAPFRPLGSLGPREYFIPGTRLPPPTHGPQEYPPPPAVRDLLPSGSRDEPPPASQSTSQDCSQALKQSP
UniProt Q9BRT3: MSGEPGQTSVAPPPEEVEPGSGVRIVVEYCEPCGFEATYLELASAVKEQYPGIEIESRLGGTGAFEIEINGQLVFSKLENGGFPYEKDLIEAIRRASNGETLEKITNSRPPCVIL
UniProt Q9UHC7: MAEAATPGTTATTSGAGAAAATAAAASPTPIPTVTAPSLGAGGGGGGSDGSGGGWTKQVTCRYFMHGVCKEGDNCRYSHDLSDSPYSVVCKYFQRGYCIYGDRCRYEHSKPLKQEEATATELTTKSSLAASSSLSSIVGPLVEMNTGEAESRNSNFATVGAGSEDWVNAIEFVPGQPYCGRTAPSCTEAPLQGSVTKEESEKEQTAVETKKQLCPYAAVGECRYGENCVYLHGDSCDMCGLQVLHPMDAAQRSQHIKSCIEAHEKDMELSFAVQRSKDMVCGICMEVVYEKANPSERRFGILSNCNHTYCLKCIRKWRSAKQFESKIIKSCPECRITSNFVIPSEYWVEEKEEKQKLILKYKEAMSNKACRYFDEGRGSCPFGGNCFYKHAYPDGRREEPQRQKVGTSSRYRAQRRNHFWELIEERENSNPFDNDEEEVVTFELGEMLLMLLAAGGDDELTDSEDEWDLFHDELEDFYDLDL
UniProt Q9H000: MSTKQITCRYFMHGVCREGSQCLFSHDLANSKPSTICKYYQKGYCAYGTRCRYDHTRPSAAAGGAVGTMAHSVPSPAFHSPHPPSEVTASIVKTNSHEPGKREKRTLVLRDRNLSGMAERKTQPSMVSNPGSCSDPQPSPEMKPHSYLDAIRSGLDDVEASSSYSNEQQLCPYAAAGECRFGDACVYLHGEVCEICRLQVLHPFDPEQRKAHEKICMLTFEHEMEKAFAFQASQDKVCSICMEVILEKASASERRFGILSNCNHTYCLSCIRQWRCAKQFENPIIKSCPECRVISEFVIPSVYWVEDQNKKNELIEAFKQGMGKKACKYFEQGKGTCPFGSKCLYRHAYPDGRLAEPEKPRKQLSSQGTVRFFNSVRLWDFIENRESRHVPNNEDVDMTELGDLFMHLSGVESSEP

## MOB4_Q9Y3A3_188_QIFDEYENETFLCHR (UniProt Q9Y3A3)
10 µM
  probe-labelled cysteine peptide fold change: 0.236
50 µM
  probe-labelled cysteine peptide fold change: 0.102

## MRPL33_O75394_29_MVSEAGTGFCFNTK (UniProt O75394)
10 µM
  probe-labelled cysteine peptide fold change: -0.0739
50 µM
  probe-labelled cysteine peptide fold change: -0.084

## MPP5_Q8N3R9_366_AHFDYDPSDDPYVPCR (UniProt Q8N3R9)
10 µM
  probe-labelled cysteine peptide fold change: -0.321
50 µM
  probe-labelled cysteine peptide fold change: -0.153

## MOV10_Q9HCE1_553+564_AHILACAPSNSGADLLCQR (UniProt Q9HCE1)
10 µM
  probe-labelled cysteine peptide fold change: 0.0454
50 µM
  probe-labelled cysteine peptide fold change: 0.0277

## MILR1_Q7Z6M3_329_EQEACDSYK (UniProt Q7Z6M3)
10 µM
  probe-labelled cysteine peptide fold change: -0.0428
50 µM
  probe-labelled cysteine peptide fold change: -0.188

## MRI1_Q9BV20_285_HHGIPFYVAAPSSSCDLR (UniProt Q9BV20)
10 µM
  probe-labelled cysteine peptide fold change: 0.0223
50 µM
  probe-labelled cysteine peptide fold change: -0.165

## MKI67_P46013_903_SEETNTEIVECILK (UniProt P46013)
10 µM
  probe-labelled cysteine peptide fold change: -0.0239
50 µM
  probe-labelled cysteine peptide fold change: -0.132

## MPP6_Q9NZW5_236_CHFDYNPYNDNLIPCK (UniProt Q9NZW5)
10 µM
  probe-labelled cysteine peptide fold change: 0.344
50 µM
  probe-labelled cysteine peptide fold change: 0.195

## MMS19_Q96T76_331_REVFQTASERVEAEGLAALHSLTACLSR (UniProt Q96T76)
10 µM
  probe-labelled cysteine peptide fold change: -0.435
50 µM
  probe-labelled cysteine peptide fold change: -0.225

## MILR1_Q7Z6M3_110_AQVTSCSK (UniProt Q7Z6M3)
10 µM
  probe-labelled cysteine peptide fold change: 0.00658
50 µM
  probe-labelled cysteine peptide fold change: -0.0857

## MON2_Q7Z3U7_212_SVSTLKPCAK (UniProt Q7Z3U7)
10 µM
  probe-labelled cysteine peptide fold change: -0.0851
50 µM
  probe-labelled cysteine peptide fold change: -0.116

## MLH1_P40692_494_EMTAACTPR (UniProt P40692)
10 µM
  probe-labelled cysteine peptide fold change: -0.0604
50 µM
  probe-labelled cysteine peptide fold change: -0.19

## MICAL2_O94851_703_SLGSNQECGSSK (UniProt O94851)
10 µM
  probe-labelled cysteine peptide fold change: -0.0534
50 µM
  probe-labelled cysteine peptide fold change: -0.125

## MIA3_Q5JRA6_1513_AGLEDECK (UniProt Q5JRA6)
10 µM
  probe-labelled cysteine peptide fold change: 0.0174

## MIEN1_Q9BRT3_33_IVVEYCEPCGFEATYLELASAVK (UniProt Q9BRT3)
10 µM
  probe-labelled cysteine peptide fold change: -0.0733
50 µM
  probe-labelled cysteine peptide fold change: -0.00377

## MRGBP_Q9NV56_38_GPGEAATSPAEETVVWSPEVEVCLFHAMLGHKPVGVNR (UniProt Q9NV56)
10 µM
  probe-labelled cysteine peptide fold change: -0.0232
50 µM
  probe-labelled cysteine peptide fold change: -0.11

## MNAT1_P51948_293_AASPQDLAGGYTSSLACHR (UniProt P51948)
10 µM
  probe-labelled cysteine peptide fold change: -0.00413
50 µM
  probe-labelled cysteine peptide fold change: -0.239

## MINK1_Q8N4C8_129_EDCIAYICR (UniProt Q8N4C8)
10 µM
  probe-labelled cysteine peptide fold change: 0.00524

## MIOS_Q9NXC5_321_SVQPCDNYIASFAWHPTSQNR (UniProt Q9NXC5)
10 µM
  probe-labelled cysteine peptide fold change: 0.11
50 µM
  probe-labelled cysteine peptide fold change: -0.43

## MIS12_Q9H081_133_YKTELCTK (UniProt Q9H081)
10 µM
  probe-labelled cysteine peptide fold change: -0.0461
50 µM
  probe-labelled cysteine peptide fold change: 0.0357

## MORC3_Q14149_787_QCSALQHVK (UniProt Q14149)
10 µM
  probe-labelled cysteine peptide fold change: -0.05
50 µM
  probe-labelled cysteine peptide fold change: -0.17

## MIF4GD_A9UHW6_150_EEEVDCLVLQLHR (UniProt A9UHW6)
10 µM
  probe-labelled cysteine peptide fold change: 0.222

## MKI67_P46013_3229_CAENPK (UniProt P46013)
10 µM
  probe-labelled cysteine peptide fold change: -0.0831
50 µM
  probe-labelled cysteine peptide fold change: -0.221

## MOV10_Q9HCE1_650_LVSAQFPIDHFTHIFIDEAGHCMEPESLVAIAGLMEVK (UniProt Q9HCE1)
10 µM
  probe-labelled cysteine peptide fold change: 0.00257

## MLKL_Q8NB16_437_RQQEPLGEDCPSELREIIDECR (UniProt Q8NB16)
10 µM
  probe-labelled cysteine peptide fold change: -0.118
50 µM
  probe-labelled cysteine peptide fold change: -0.137

## MIA3_Q5JRA6_61_GEALEDFTGPDCR (UniProt Q5JRA6)
10 µM
  probe-labelled cysteine peptide fold change: 0.0774
50 µM
  probe-labelled cysteine peptide fold change: -0.107

## MKRN1_Q9UHC7_239_YGENCVYLHGDSCDMCGLQVLHPMDAAQR (UniProt Q9UHC7)
10 µM
  probe-labelled cysteine peptide fold change: 0.113
50 µM
  probe-labelled cysteine peptide fold change: -0.171

## MLEC_Q14165_206_VCALYIMAGTVDDVPK (UniProt Q14165)
10 µM
  probe-labelled cysteine peptide fold change: -0.014
50 µM
  probe-labelled cysteine peptide fold change: 0.0498

## MICAL2_O94851_478_YPNLNSHCVRPHQVK (UniProt O94851)
10 µM
  probe-labelled cysteine peptide fold change: 0.0393
50 µM
  probe-labelled cysteine peptide fold change: -0.153

## MKI67_P46013_2206_ELFQTPICTDKPTTHEK (UniProt P46013)
10 µM
  probe-labelled cysteine peptide fold change: -0.0325
50 µM
  probe-labelled cysteine peptide fold change: -0.355

## MKI67_P46013_715_KPVGEVHSQFSTGHANSPCTIIIGK (UniProt P46013)
10 µM
  probe-labelled cysteine peptide fold change: 0.0395
50 µM
  probe-labelled cysteine peptide fold change: -0.168

## MKNK2_Q9HBH9_136_EVEMLYQCQGHR (UniProt Q9HBH9)
10 µM
  probe-labelled cysteine peptide fold change: 0.495
50 µM
  probe-labelled cysteine peptide fold change: 0.556

## MRPL38_Q96DV4_290_QDQPIDFSEDARPSPCYQLAQR (UniProt Q96DV4)
10 µM
  probe-labelled cysteine peptide fold change: -0.028

## MOB3A_Q96BX8_88_VNLIYGTISDGCTEQSCPVMSGGPK (UniProt Q96BX8)
10 µM
  probe-labelled cysteine peptide fold change: 0.127
50 µM
  probe-labelled cysteine peptide fold change: -0.0146

## MIS18A_Q9NYP9_85_AQLEEEAAAAEERPLVFLCSGCR (UniProt Q9NYP9)
10 µM
  probe-labelled cysteine peptide fold change: -0.0813

## MLLT10_P55197_140_TCYICDEQGR (UniProt P55197)
10 µM
  probe-labelled cysteine peptide fold change: 0.277
50 µM
  probe-labelled cysteine peptide fold change: 0.186

## MKI67_P46013_261_ENVLQYCR (UniProt P46013)
10 µM
  probe-labelled cysteine peptide fold change: -0.117
50 µM
  probe-labelled cysteine peptide fold change: -0.129

## MKRN2_Q9H000_216_ICMLTFEHEMEK (UniProt Q9H000)
10 µM
  probe-labelled cysteine peptide fold change: 0.0247
50 µM
  probe-labelled cysteine peptide fold change: 0.0549

## MOCOS_Q96EN8_635_LCLIQPFIDLR (UniProt Q96EN8)
10 µM
  probe-labelled cysteine peptide fold change: 0.0357
50 µM
  probe-labelled cysteine peptide fold change: 0.0538
